Article doi:10.1101/2025.05.13.653593

Biological target: Rv2315c, spotted on the Mtb proteome microarray (Mycobacterium tuberculosis) (UniProt P71897)
Assay: peptide or protein array

With “recombinant human GSDMD protein (from UniProt P57764 1-484)” as the substance, how does the binding read?
The binding was “binds”.

No constants are given. Whether binding was seen depends on the method and setting. A result given as binding can be weak or reduced; the word gives no strength.
